Source: the M2OR odorant receptor database
This is a selection; strong and weak results do not stand in their true shares. Calls are pooled over several reports, among them a noisy single-well screen. The list shows a part of the results.

Sequences of proteins named here, by UniProt entry; tags and fusion partners are left off. A line that says so, or that is headed by a name, gives the form on record, which may keep a tag or linker.
UniProt Q9R0K2, as listed by the source: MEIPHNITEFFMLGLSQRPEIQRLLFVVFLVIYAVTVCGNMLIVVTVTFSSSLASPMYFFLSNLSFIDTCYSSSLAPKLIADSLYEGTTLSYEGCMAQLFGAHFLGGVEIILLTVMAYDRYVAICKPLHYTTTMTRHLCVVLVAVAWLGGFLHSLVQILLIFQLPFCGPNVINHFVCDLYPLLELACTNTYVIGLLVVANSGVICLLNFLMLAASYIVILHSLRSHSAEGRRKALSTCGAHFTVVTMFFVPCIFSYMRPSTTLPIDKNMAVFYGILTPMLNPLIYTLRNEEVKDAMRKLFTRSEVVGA
UniProt Q9WVD9, as listed by the source: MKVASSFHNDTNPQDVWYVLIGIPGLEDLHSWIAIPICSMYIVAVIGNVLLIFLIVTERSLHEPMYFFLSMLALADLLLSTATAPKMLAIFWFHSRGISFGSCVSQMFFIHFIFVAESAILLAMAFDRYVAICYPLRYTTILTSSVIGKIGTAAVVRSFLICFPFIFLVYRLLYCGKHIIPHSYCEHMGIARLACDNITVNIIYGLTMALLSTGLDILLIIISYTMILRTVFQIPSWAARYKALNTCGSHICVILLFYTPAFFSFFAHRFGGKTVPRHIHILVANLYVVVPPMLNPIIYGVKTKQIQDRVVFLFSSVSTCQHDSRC

Assays:
Settings in all cases: stereoisomer not certain
[1] = target: T1, UniProt Q8VGZ7
T1 sequence (whole entry): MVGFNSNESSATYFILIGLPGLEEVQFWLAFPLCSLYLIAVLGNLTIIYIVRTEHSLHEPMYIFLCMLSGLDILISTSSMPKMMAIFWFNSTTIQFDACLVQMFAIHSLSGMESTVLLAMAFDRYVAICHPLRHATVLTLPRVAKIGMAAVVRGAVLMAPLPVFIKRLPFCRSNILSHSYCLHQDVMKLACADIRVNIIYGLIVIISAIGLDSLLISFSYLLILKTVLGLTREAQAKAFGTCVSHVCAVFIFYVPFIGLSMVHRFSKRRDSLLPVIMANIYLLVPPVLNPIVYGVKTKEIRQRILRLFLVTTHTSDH
Method in brief: (§1)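 Assay methods differ from source to source, frequently being transient luciferase assays in mammalian cell lines. For each receptor–molecule pair, the label responsive (active) applies when the original authors judged the measured signal statistically different from baseline, and non-responsive (inactive) applies otherwise.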

[2] = target: T2, UniProt Q8VH10
T2 sequence (whole entry): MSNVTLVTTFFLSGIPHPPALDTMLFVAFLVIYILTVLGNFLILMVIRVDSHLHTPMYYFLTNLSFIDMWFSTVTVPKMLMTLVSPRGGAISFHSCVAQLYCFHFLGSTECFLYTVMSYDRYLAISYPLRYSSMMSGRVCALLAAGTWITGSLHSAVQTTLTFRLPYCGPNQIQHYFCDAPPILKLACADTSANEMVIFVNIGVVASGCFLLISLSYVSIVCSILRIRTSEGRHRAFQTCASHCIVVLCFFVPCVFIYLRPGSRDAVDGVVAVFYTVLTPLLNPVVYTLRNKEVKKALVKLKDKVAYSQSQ
Method in brief: as §1

[3] = target: T3, UniProt Q8VH16
T3 sequence (whole entry): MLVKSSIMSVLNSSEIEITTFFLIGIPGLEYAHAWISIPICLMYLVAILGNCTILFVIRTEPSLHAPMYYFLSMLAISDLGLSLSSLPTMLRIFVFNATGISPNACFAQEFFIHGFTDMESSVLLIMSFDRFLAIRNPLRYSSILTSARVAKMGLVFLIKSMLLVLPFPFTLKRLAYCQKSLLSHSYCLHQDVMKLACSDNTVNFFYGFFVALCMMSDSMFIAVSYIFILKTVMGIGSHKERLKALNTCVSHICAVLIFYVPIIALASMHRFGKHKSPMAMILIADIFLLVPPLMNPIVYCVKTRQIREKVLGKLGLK
Method in brief: as §1

[4] = target: T4, UniProt Q8VH18
T4 sequence (whole entry): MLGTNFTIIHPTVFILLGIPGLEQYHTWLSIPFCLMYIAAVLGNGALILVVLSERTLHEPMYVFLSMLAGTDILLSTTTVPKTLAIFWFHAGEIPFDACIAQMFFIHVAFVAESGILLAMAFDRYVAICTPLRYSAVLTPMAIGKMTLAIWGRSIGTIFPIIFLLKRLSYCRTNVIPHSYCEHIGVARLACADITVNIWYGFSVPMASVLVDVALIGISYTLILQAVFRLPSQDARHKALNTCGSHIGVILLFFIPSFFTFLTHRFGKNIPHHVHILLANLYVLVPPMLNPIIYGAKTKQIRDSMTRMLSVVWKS
Method in brief: as §1

[5] = target: T5, UniProt Q8VH20
T5 sequence (whole entry): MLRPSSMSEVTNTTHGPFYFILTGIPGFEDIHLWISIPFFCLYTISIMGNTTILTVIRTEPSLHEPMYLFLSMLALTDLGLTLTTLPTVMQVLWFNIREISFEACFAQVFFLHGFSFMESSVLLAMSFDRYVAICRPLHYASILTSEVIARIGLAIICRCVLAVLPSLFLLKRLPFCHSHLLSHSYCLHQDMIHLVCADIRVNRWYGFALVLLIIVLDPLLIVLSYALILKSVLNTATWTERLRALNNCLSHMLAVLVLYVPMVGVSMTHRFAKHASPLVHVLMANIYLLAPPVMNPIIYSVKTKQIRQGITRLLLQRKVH
Method in brief: as §1

[6] = target: T6, UniProt Q8VH21
T6 sequence (whole entry): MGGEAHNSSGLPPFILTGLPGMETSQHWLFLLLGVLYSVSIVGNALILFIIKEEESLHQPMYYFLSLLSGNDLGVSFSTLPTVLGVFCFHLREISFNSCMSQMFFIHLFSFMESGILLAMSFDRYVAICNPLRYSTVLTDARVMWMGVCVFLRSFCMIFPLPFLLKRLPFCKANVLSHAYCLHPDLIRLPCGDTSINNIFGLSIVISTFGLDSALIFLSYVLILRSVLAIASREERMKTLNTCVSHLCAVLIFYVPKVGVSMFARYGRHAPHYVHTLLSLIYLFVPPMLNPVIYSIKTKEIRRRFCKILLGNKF
Method in brief: as §1

[7] = target: T7, UniProt Q920P1
T7 sequence (whole entry): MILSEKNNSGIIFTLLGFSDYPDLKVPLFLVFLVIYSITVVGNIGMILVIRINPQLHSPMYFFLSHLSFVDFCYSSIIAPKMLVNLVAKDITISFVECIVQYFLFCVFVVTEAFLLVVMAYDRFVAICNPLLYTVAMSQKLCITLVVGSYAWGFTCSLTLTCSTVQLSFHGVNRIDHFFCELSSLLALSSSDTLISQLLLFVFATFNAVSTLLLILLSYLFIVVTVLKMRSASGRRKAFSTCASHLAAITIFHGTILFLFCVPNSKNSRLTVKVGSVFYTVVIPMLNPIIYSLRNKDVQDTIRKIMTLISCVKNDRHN
Method in brief: as §1

[8] = target: T8, UniProt Q920P2
T8 sequence (whole entry): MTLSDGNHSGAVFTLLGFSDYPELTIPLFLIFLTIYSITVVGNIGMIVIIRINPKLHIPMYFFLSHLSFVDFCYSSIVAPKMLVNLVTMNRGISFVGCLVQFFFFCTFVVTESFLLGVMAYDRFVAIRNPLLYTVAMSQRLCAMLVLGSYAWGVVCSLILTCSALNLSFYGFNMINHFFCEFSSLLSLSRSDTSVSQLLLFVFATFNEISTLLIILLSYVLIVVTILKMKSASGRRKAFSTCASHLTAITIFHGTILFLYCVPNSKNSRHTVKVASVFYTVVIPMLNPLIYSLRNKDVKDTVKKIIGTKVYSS
Method in brief: as §1

[9] = target: T9, UniProt Q924H8
T9 sequence (whole entry): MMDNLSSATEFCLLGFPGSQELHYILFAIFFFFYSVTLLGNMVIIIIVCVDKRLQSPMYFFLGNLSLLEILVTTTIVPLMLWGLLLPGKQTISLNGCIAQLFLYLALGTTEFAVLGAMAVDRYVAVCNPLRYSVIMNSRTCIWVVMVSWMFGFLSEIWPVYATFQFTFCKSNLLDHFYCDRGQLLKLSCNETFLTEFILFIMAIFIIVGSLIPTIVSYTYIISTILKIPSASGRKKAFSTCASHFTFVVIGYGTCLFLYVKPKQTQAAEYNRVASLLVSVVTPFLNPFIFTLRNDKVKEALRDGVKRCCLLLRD
Method in brief: as §1

[10] = target: T10, UniProt Q9EPN9
T10 sequence (whole entry): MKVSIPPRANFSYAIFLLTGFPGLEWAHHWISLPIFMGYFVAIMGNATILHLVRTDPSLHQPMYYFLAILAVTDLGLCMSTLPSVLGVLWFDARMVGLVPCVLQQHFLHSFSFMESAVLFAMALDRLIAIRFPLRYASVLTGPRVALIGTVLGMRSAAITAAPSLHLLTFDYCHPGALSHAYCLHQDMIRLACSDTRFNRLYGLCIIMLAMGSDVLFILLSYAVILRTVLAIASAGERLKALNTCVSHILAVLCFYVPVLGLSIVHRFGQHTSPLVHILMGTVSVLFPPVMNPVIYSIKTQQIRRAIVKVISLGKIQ
Method in brief: as §1

[11] = target: UniProt Q9R0K2
Method in brief: as §1

[12] = target: T11, UniProt Q9WU86
T11 sequence (whole entry): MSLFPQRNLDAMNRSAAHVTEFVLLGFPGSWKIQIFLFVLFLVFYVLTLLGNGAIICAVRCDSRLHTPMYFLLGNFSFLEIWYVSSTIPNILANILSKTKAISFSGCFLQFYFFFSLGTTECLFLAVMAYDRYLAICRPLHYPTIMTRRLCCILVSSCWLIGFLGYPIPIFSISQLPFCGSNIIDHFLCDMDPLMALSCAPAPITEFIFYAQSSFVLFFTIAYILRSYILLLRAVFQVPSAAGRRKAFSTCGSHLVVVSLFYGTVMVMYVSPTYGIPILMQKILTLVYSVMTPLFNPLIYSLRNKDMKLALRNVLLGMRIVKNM
Method in brief: as §1

[13] = target: T12, UniProt Q9WU94
T12 sequence (whole entry): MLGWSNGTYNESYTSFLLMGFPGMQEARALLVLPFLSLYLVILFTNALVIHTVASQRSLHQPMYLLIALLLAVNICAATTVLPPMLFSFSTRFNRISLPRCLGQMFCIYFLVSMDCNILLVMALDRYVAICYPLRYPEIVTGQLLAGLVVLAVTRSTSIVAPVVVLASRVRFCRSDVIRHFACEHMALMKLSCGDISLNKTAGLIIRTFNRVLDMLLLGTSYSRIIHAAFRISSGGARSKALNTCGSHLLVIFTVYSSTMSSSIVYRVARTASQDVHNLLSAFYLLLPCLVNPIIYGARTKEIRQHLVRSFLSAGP
Method in brief: as §1

[14] = target: UniProt Q9WVD9
Method in brief: as §1

[15] = target: T13, UniProt Q9WVN5
T13 sequence (whole entry): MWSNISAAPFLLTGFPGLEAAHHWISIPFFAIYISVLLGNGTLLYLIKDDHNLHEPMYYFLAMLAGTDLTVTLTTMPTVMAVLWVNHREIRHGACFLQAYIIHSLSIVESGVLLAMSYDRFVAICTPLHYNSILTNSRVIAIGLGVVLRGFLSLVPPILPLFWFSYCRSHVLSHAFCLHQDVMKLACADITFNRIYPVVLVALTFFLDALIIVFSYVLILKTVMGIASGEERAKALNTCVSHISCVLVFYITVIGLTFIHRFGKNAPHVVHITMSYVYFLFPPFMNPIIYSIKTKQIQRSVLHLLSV
Method in brief: as §1

[16] = target: T14, UniProt Q99NH4
T14 sequence (whole entry): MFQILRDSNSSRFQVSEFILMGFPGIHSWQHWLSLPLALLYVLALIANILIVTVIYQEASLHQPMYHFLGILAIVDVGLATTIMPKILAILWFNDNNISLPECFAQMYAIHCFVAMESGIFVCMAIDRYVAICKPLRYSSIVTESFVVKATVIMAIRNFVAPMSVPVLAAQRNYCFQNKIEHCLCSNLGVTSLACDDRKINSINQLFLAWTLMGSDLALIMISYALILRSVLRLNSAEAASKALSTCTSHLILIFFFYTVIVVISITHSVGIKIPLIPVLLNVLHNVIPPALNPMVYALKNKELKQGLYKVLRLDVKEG
Method in brief: as §1

| SMILES | odorant receptor agonist call [1] | odorant receptor agonist call [2] | odorant receptor agonist call [3] | odorant receptor agonist call [4] | odorant receptor agonist call [5] | odorant receptor agonist call [6] | odorant receptor agonist call [7] | odorant receptor agonist call [8] | odorant receptor agonist call [9] | odorant receptor agonist call [10] | odorant receptor agonist call [11] | odorant receptor agonist call [12] | odorant receptor agonist call [13] | odorant receptor agonist call [14] | odorant receptor agonist call [15] | odorant receptor agonist call [16] |
| --- | --- | --- | --- | --- | --- | --- | --- | --- | --- | --- | --- | --- | --- | --- | --- | --- |
| C=C(C)C1CC=C(C)C(=O)C1 (stereo unspecified) | inactive | inactive | inactive | inactive | inactive | inactive | inactive | inactive | inactive | inactive | inactive | inactive | inactive | inactive | inactive |  |
| C=CCc1ccc(OC)c(OC)c1 | inactive |  | inactive |  | inactive | inactive |  |  | inactive |  |  |  |  |  |  |  |
| CC12CCC(C1)C(C)(C)C2=O (stereo unspecified) | inactive | inactive |  |  | inactive |  |  |  |  | inactive | inactive | inactive |  | inactive | inactive |  |
| CCCCCCCCC=O | inactive | inactive | inactive | inactive | inactive | inactive |  |  | inactive | inactive | inactive | inactive | inactive | inactive | inactive | inactive |
| CC(C)(O)CCCC1=CCC(C=O)CC1 (stereo unspecified) | inactive | inactive | inactive |  | inactive | inactive | inactive | inactive | active | inactive | inactive | inactive |  | inactive | inactive |  |
| CCCCCC(C)=O | inactive | inactive | inactive |  | inactive | inactive |  |  | inactive | inactive | inactive | inactive |  | inactive | inactive |  |
